Measurements: PubChem BioAssay AID1347423 (Functional Genomics Laboratory (NCATS/FGL), 2020)
Screen size: about 52,000 sequences; about 210 (0.4%) were called active.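 The calls were made as follows: active = gene whose silencing raises cell survival under the drug, median off-target-corrected z-score across its silencing RNAs 2 or more; inactive = the rest.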 The list shows a part of the results.

assay: Resistance to Poly (ADP-Ribose) Polymerase inhibitor: Gene Identification via Genome-wide siRNA Screen; details: mouse BRCA2 R2336H ES cells, olaparib, CellTiter-Glo viability; stronger effect = higher value
Procedure, shortened: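 Mouse BRCA2 R2336H ES cells were reverse-transfected with siRNA (20 nM final), treated at 48 h with 500 nM olaparib, and read by CellTiter-Glo after 72 h. Scores: MAD-based z per siRNA, median per gene, seed off-target correction.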

| Sequence | z-score |
| --- | --- |
| GCAAUAGCAAAACGACUAATT against Nrk | inactive: 0.765 |
| GGUCAAUUGUCCAUAUGACTT against Tnrc9 | inactive: 0.795 |
| CCCUUAUGAACCCAUAAAGTT against Oasl1 | inactive: 0.473 |
| GGAAUCUAGGAUUCCACAGTT against Tbxa2r | inactive: -2.23 |
| GCGUGUGACUUACAAGGAATT against Mapk12 | inactive: 0.0729 |
| GCAUUUAUAAUUGCUGAACTT against Cbx1 | inactive: 0.43 |
| GGUUCCUCUCCUCCUGAUATT against Olfr1444 | inactive: -1.96 |
| GGAUUCGAGUGGUAACAAGTT against 1110025F24Rik | inactive: -1.78 |
| GGAUGAUCACAUCGAUUGGTT against Vps41 | inactive: -0.73 |
| CCCAUCUUUUAGAAAAUGGTT against A730024A03Rik | inactive: -0.428 |
| GCAGUAGUAACUGCUUGAGTT against Saa2 | inactive: -1.73 |
| GGAAGACAACAAAAGGAUGTT against 1700012M14Rik | inactive: -0.511 |
| GCCUUGCUGCCAGAACCUATT against Sumf2 | inactive: -0.824 |
| GCAUUAAAAACCCUUUUUGTT against B230354K17Rik | inactive: 1.27 |
| GCAUAAGUCCCUCUUAGUGTT against Slc6a7 | inactive: 0.628 |
| GGAAGAAGUCAGAUGUGGATT against D930005D10Rik | inactive: -0.0931 |
| CGAACAGUCUGUAUGGCGATT against Jak1 | active: 3.46 |
| GCCCAUCAGUGAGGUGCUATT against Adh7 | inactive: 3.33 |
| GCAAAGACAAUCUUUAAGGTT against Pde4d | inactive: -0.175 |
| GGUGUUCAAACUGAUUGGATT against 4930432B04Rik | inactive: 0.962 |
| GGAGGAAGAGAUGAUUUUATT against A930039G15Rik | inactive: 1.04 |
| GCUGCCUACACCUUUUACGTT against Abhd8 | inactive: 2.32 |

| Sequence | z-score |
| --- | --- |
| GCUAUUGGACAGCUUCUACTT against Olfr1313 | inactive: -0.601 |
| AUCUCUCGGUGGUGGACUGTT against Olfr1474 | inactive: 0.562 |
| GGGACUGAAUUUAGUUUCATT against Prx | inactive: -0.398 |
| GGAUGAGUUAAGUUUCUCATT against Sh3d19 | inactive: 2.39 |
| CCUGCUACCUUAACUCUAATT against C630002M10Rik | inactive: -1.72 |
| GGAAGACAGGGACAAUACCTT against Car15 | inactive: -0.633 |
| CGAGUGUUGAAUAUUGUGATT against Gpr65 | inactive: 0.641 |
| GCCAGCUACUCUCUUGAGATT against Olfr419 | inactive: -0.708 |
| GGAUGUAUCUGGAGAAUUUTT against 1110019C08Rik | inactive: 0.175 |
| GGGCAUCAUGAAACUAUGUTT against Kbtbd4 | inactive: 1.11 |
| CGCAGAUAAUAUCUUUGUCTT against Olfr461 | inactive: -0.173 |
| GGGAAGUCCAAAUAACGGATT against 4930500C15Rik | inactive: -0.301 |
| CCUACCCUACUAAUGAAUUTT against Cldn4 | inactive: 1.46 |
| GCUUUUAUACACUUCCCUCTT against Nmt1 | inactive: 1.12 |
| CCAGCGACUACAGCAAAUATT against Gcg | inactive: -1.67 |
| GCCUUAUCAGGGUUAAUGGTT against Ipo4 | inactive: -0.845 |
| CCAGAUACCCAUAAUAUCUTT against Mbnl1 | inactive: -0.477 |
| GGGUCAUUUUUUAGCCUUCTT against V1rj2 | inactive: -0.97 |
| GGCGUAAUUUUGAUUCAGUTT against 2410018C17Rik | inactive: -0.0355 |
| GCGUAACUACUACAUGAAUTT against 5430425C04Rik | inactive: 1.46 |
| CCCAUUCAAGCACUUAUGGTT against 2610318K02Rik | inactive: -0.653 |
| CGGUUCUUUUACCAAGAUCTT against Jak3 | inactive: 0.655 |

15 neighbouring entries out of the list so far, quoted:

| Sequence | z-score |
| --- | --- |
| GGAAGACAGGGACAAUACCTT against Car15 | inactive: -0.633 |
| CGAGUGUUGAAUAUUGUGATT against Gpr65 | inactive: 0.641 |
| GCCAGCUACUCUCUUGAGATT against Olfr419 | inactive: -0.708 |
| GGAUGUAUCUGGAGAAUUUTT against 1110019C08Rik | inactive: 0.175 |
| GGGCAUCAUGAAACUAUGUTT against Kbtbd4 | inactive: 1.11 |
| CGCAGAUAAUAUCUUUGUCTT against Olfr461 | inactive: -0.173 |
| GGGAAGUCCAAAUAACGGATT against 4930500C15Rik | inactive: -0.301 |
| CCUACCCUACUAAUGAAUUTT against Cldn4 | inactive: 1.46 |
| GCUUUUAUACACUUCCCUCTT against Nmt1 | inactive: 1.12 |
| CCAGCGACUACAGCAAAUATT against Gcg | inactive: -1.67 |
| GCCUUAUCAGGGUUAAUGGTT against Ipo4 | inactive: -0.845 |
| CCAGAUACCCAUAAUAUCUTT against Mbnl1 | inactive: -0.477 |
| GGGUCAUUUUUUAGCCUUCTT against V1rj2 | inactive: -0.97 |
| GGCGUAAUUUUGAUUCAGUTT against 2410018C17Rik | inactive: -0.0355 |
| GCGUAACUACUACAUGAAUTT against 5430425C04Rik | inactive: 1.46 |

Remaining list, next part

| Sequence | z-score |
| --- | --- |
| GGUGUAUGGACCAUUUUAUTT against E430026E19Rik | inactive: 0.87 |
| GGAAGUCUUAGAAGUAGCCTT against Diap3 | inactive: 0.546 |
| GCCAAUCUCAAGAUGAAGCTT against Emid2 | inactive: -0.712 |
| GGUCUUCCUGGUUCAGCUUTT against Pold4 | inactive: 0.588 |
| GCAUAACAAGCAACUUAAGTT against Bms1l | inactive: -2.5 |
| GCGCAGUUUCAAGGAACUGTT against Kcnf1 | inactive: 0.782 |
| CCUGACACUUAUUCUCGGGTT against 5330416C01Rik | inactive: 0.032 |
| GGAGCUGGAUGGUGUUGGUTT against Prom2 | inactive: -1.78 |
| GGUAGAGGAUUUACUGAGCTT against Creb3 | inactive: 0.00692 |
| CCCUGCUUCGUGUGCUAUUTT against C130074G19Rik | inactive: -1.31 |
| GGAAACUUUACUUUCAUGGTT against Kcnma3 | inactive: 2.14 |
| GGUUAUCUUCUUGACAGAATT against Nmur2 | inactive: -0.599 |
| CCAGUUAAACACAUUAGCCTT against 1200013A08Rik | inactive: -0.447 |
| GGAUAACAGUAAAUGGCUUTT against Zfp192 | inactive: 1.36 |
| GGAUUUGUUCGACCAGAUUTT against Epb4.1l4b | inactive: -2.85 |
| GGAGGAAAUCCAAGAACUUTT against Fgfr1op2 | inactive: -1.13 |
| GGAGCAGAUUCGGAAGAAATT against Nr1h2 | inactive: 0.656 |
| GCAUCAAAGGUCUGAGACUTT against Pdzx | inactive: -2.33 |
| GCUUUUUGCAUUGACUGGATT against Usp14 | inactive: 0.474 |
| GGACUUUUACAUUGAGUCCTT against Shprh | inactive: -0.725 |
| GGCAGGUAUGGAUGUAUUGTT against Renbp | inactive: -1.33 |
| CCAACUGCACUGUCAAACUTT against Tbcc | inactive: -0.0519 |
